Source: PubChem BioAssay AID504808 (Drosophila RNAi Screening Center, 2011)

- Aim: 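Fly genes required to hold E2F transcription in check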 (primary screen)
- Cells: Drosophila S2 cells
- Knock-down reagent: long dsRNA against Drosophila genes
- Detection: 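Firefly luciferase driven by E2F sites, normalised to Renilla luciferase on the same minimal promoter, measured by plate reader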
- Direction: E2F firefly: higher = more E2F reporter activity; Renilla normaliser: higher = more normaliser reporter signal
- Rule for the call: 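a knock-down counted as active when the firefly/Renilla E2F signal rose above 50%, a threshold chosen arbitrarily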
The deposit covers about 21,000 reagents; this is a random part of those that have a named target and a result. Over the whole deposit, 18 (0.084%) were called active. 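Raw counts without plate normalisation, one of two replicates; the ratio scores behind the calls were not deposited.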 A plus sign joins genes that one reagent is predicted to hit. The record does not give: the amount of reagent, the time to read-out.

| Target gene | DRSC id | E2F firefly, rep 1 | Renilla normaliser, rep 1 | Call |
| --- | --- | --- | --- | --- |
| Cyp6t3 | DRSC07388 | 1.06e5 | 4250 | inactive |
| CG1138 | DRSC12530 | 1.46e5 | 8519 | inactive |
| CG31013 | DRSC16542 | 1.27e5 | 6453 | inactive |
| CG10366 | DRSC02046 | 82782 | 3430 | inactive |
| CG42724 | DRSC12567 | 63491 | 4077 | inactive |
| pgc | DRSC04099 | 92889 | 3320 | inactive |
| topi | DRSC16431 | 1.25e5 | 6417 | inactive |
| IntS9 | DRSC10493 | 63959 | 3128 | inactive |
| Cp18 | DRSC11120 | 96709 | 4208 | inactive |
| Cp16 | DRSC11119 | 96912 | 3973 | inactive |
| CG14185 | DRSC10184 | 1.24e5 | 7711 | inactive |
| CG13562 | DRSC04200 | 98150 | 3872 | inactive |
| Ca-alpha1T | DRSC17842 | 92023 | 5645 | inactive |
| Ca-alpha1T | DRSC18103 | 1.01e5 | 4988 | inactive |
| Ca-alpha1T | DRSC18356 | 1.11e5 | 5601 | inactive |
| Ca-alpha1T | DRSC18357 | 1.05e5 | 5299 | inactive |
| CG18234 | DRSC10309 | 1.78e5 | 7566 | inactive |
| CG12522 | DRSC09088 | 1.06e5 | 4002 | inactive |
| CG17778 | DRSC18504 | 57556 | 5659 | inactive |
| SecS | DRSC12222 | 1.39e5 | 6974 | inactive |
| CG11779 + CG5835 | DRSC15886 | 1.31e5 | 7350 | inactive |
| Plzf | DRSC02994 | 70859 | 3007 | inactive |
| CG13473 | DRSC10017 | 76820 | 3589 | inactive |
| mthl8 | DRSC08211 | 74147 | 3082 | inactive |
| mthl8 | DRSC08311 | 98687 | 3948 | inactive |
| CG31223 | DRSC15115 | 64962 | 3854 | inactive |
| Icmt | DRSC09834 | 1.20e5 | 7662 | inactive |
| CG3857 | DRSC18542 | 1622 | 888 | inactive |
| CG17821 | DRSC06696 | 1.49e5 | 5522 | inactive |
| slv | DRSC07685 | 1.59e5 | 5218 | inactive |
| Saf6 | DRSC00633 | 86080 | 3965 | inactive |
| CG13679 | DRSC10037 | 89480 | 3567 | inactive |
| Mdh2 (retired record) | DRSC16361 | 1.39e5 | 6671 | inactive |
| Cog3 | DRSC00585 | 76307 | 3640 | inactive |
| Spn28B | DRSC02982 | 1.46e5 | 5151 | inactive |
| Ccdc39 | DRSC12286 | 1.33e5 | 7293 | inactive |
| Dpit47 | DRSC04985 | 1.19e5 | 4556 | inactive |
| CG4238 | DRSC00090 | 1.38e5 | 5214 | inactive |
| CG4238 | DRSC00644 | 1.64e5 | 6834 | inactive |
| stol | DRSC01956 | 97367 | 4255 | inactive |
| PK2-R1 | DRSC16447 | 95933 | 5619 | inactive |
| CG7884 | DRSC20065 | 1.40e5 | 6035 | inactive |
| Hmu | DRSC16705 | 1.18e5 | 7075 | inactive |
| CG10904 | DRSC04084 | 1.03e5 | 4108 | inactive |
| emb | DRSC03528 | 83879 | 3350 | inactive |
| Tdh | DRSC11788 | 79128 | 3508 | inactive |
| Sirt4 | DRSC18290 | 1.09e5 | 5549 | inactive |
| retinin | DRSC09940 | 1.56e5 | 6582 | inactive |
| Ir51a | DRSC06256 | 1.03e5 | 4199 | inactive |
| Pka-R2 | DRSC07509 | 1.55e5 | 5110 | inactive |
| bip1 | DRSC11327 | 69123 | 4120 | inactive |
| CG13912 | DRSC08381 | 1.06e5 | 4644 | inactive |
| CG10616 | DRSC09750 | 70716 | 3289 | inactive |
| Cyp6d5 | DRSC16634 | 75484 | 3426 | inactive |
| MBD-like | DRSC16996 | 1.43e5 | 7015 | inactive |
| CG7966 | DRSC16356 | 75782 | 3359 | inactive |
| beta4GalNAcTA | DRSC05944 | 44848 | 3345 | inactive |
| BCAS2 | DRSC15693 | 1711 | 1068 | inactive |
| Orct | DRSC16777 | 73255 | 3803 | inactive |
| CG42237 | DRSC19891 | 1.32e5 | 6254 | inactive |
| CG2224 | DRSC15429 | 1.30e5 | 6972 | inactive |
| msd5 | DRSC08560 | 1.06e5 | 4386 | inactive |
| CG15345 (retired record) | DRSC18030 | 1.07e5 | 5325 | inactive |
| Xpac | DRSC18730 | 1.09e5 | 5616 | inactive |
| CG11883 | DRSC06094 | 3095 | 198 | inactive |
| eIF3i | DRSC03464 | 71491 | 4295 | inactive |
| Vago | DRSC19833 | 1.32e5 | 7305 | inactive |
| CG46385 | DRSC06425 | 1942 | 168 | inactive |
| CG46385 | DRSC06557 | 1.45e5 | 4861 | inactive |
| CysRS | DRSC05948 | 78558 | 3593 | inactive |
| Sr-CII | DRSC07557 | 92423 | 4445 | inactive |
| CG33255 (retired record) + hpRNA:CR32205 + hpRNA:CR32207 | DRSC09617 | 87413 | 4037 | inactive |
| CG42512 + CG32573 | DRSC19532 | 2.46e5 | 7134 | inactive |
| CG42512 + CG32573 | DRSC19906 | 1.61e5 | 6502 | inactive |
| fd19B | DRSC20688 | 1.38e5 | 6375 | inactive |
| CG17283 | DRSC15219 | 1.12e5 | 6593 | inactive |
| cato | DRSC07589 | 1.49e5 | 5290 | inactive |
| CG43322 | DRSC02280 | 1.44e5 | 4672 | inactive |
| Rab9Db + Rab9D + Rab9E | DRSC17656 | 82232 | 3006 | inactive |
| CRIF | DRSC11811 | 1.33e5 | 7508 | inactive |
| Con | DRSC08652 | 81580 | 3832 | inactive |
| porin | DRSC03594 | 80096 | 3337 | inactive |
| rdgA | DRSC17863 | 78440 | 4560 | inactive |
| rdgA | DRSC18036 | 88317 | 4562 | inactive |
| rdgA | DRSC18827 | 7657 | 816 | inactive |

Ordered by “Renilla normaliser, rep 1” (lowest first): 13 of the entries above
| Target gene | DRSC id | E2F firefly, rep 1 | Renilla normaliser, rep 1 | Call |
| --- | --- | --- | --- | --- |
| CG46385 | DRSC06425 | 1942 | 168 | inactive |
| CG11883 | DRSC06094 | 3095 | 198 | inactive |
| CysRS | DRSC05948 | 78558 | 3593 | inactive |
| CG33255 (retired record) + hpRNA:CR32205 + hpRNA:CR32207 | DRSC09617 | 87413 | 4037 | inactive |
| eIF3i | DRSC03464 | 71491 | 4295 | inactive |
| msd5 | DRSC08560 | 1.06e5 | 4386 | inactive |
| Sr-CII | DRSC07557 | 92423 | 4445 | inactive |
| CG46385 | DRSC06557 | 1.45e5 | 4861 | inactive |
| CG15345 (retired record) | DRSC18030 | 1.07e5 | 5325 | inactive |
| Xpac | DRSC18730 | 1.09e5 | 5616 | inactive |
| CG42512 + CG32573 | DRSC19906 | 1.61e5 | 6502 | inactive |
| CG42512 + CG32573 | DRSC19532 | 2.46e5 | 7134 | inactive |
| Vago | DRSC19833 | 1.32e5 | 7305 | inactive |
